Data from paper PMC10786121, “Rab29-dependent asymmetrical activation of leucine-rich repeat kinase 2” (Science (New York, N.Y.), 2023).
Results are given in words; binding and its absence hold for the method and conditions named. For part of these data: Binding seen in cells or lysates may run through a third protein. Some entries that bind do so weakly or less than the wild type.

Amino acid sequences for entries named in this document (tags omitted).
UniProt Q5S007: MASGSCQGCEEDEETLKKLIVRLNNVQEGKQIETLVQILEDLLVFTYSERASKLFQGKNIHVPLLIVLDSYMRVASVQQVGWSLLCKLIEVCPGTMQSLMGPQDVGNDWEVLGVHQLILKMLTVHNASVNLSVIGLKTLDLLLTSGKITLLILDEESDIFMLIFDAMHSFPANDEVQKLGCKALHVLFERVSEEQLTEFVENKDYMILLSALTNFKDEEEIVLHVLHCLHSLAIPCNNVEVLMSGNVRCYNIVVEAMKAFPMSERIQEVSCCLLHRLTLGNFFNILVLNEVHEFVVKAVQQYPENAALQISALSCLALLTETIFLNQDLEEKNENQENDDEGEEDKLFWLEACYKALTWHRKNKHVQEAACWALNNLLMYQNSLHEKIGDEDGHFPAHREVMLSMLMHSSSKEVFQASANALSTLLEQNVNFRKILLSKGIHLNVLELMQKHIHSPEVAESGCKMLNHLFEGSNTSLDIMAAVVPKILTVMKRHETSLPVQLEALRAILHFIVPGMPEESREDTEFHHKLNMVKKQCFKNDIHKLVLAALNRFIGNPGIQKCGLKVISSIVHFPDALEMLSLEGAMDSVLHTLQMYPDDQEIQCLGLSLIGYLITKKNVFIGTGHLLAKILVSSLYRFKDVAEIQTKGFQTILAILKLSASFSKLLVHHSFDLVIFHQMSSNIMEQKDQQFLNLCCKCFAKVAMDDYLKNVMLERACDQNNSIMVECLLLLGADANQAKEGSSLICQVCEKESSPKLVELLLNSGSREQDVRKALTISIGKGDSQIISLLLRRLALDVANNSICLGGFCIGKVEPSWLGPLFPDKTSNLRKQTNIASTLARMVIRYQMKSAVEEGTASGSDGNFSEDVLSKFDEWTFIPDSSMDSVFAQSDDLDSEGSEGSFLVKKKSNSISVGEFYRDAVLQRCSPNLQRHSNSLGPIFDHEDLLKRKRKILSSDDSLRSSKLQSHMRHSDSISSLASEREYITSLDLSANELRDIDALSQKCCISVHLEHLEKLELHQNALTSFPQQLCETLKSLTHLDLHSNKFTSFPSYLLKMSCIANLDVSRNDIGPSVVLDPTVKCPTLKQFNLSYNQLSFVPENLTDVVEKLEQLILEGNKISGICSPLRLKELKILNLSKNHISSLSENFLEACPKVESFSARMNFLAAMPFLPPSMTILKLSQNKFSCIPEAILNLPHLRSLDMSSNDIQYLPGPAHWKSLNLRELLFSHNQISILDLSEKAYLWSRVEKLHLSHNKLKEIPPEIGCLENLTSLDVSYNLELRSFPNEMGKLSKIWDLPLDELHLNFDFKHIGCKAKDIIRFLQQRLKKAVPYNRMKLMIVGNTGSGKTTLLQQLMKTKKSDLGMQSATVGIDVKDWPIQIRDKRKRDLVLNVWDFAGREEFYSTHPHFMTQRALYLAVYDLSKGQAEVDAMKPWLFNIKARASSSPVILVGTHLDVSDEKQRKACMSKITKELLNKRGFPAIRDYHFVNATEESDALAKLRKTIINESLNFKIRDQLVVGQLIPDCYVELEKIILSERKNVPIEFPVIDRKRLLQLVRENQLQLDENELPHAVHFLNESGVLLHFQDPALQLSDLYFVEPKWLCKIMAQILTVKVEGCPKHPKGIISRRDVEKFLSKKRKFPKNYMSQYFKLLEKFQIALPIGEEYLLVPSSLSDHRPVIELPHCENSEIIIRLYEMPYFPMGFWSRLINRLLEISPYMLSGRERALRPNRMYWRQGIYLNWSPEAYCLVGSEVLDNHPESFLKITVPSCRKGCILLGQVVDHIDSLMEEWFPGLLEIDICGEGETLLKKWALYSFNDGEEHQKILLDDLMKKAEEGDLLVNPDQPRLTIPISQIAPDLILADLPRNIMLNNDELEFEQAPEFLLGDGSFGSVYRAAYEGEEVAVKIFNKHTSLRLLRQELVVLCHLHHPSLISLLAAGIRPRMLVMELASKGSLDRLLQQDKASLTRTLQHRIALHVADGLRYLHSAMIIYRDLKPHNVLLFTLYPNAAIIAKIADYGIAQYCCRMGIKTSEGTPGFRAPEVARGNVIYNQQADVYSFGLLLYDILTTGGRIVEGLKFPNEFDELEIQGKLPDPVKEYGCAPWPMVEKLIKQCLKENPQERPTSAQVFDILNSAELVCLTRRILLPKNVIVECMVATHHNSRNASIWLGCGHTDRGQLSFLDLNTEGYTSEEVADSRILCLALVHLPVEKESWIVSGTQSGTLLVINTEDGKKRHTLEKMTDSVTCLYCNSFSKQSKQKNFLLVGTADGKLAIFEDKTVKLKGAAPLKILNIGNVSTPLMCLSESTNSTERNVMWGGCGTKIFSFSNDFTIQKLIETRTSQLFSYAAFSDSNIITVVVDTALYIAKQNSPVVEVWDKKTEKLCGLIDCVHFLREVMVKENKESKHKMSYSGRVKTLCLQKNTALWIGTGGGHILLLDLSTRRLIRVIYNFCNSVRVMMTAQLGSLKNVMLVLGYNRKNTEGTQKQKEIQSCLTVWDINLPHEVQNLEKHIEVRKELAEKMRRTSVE

What was measured:
[1] = biological target: leucine-rich repeat kinase 2 (LRRK2) (UniProt Q5S007); assay: pull-down; GST pulldown assay, in vitro (fig. S2G); which partner bore GST is not told in the text shown
[2] = biological target: leucine-rich repeat kinase 2 (LRRK2) (UniProt Q5S007); assay: cryo-EM structure; complex reconstituted by mixing LRRK2, Rab29EM, GTP analog (GppNHp), ATP and Mg2+; three oligomeric assemblies (monomer, dimer, tetramer); C2 symmetry imposed for dimer and tetramer; both purified
[3] = biological target: leucine-rich repeat kinase 2 (LRRK2) (UniProt Q5S007); assay: cryo-EM 2D classification; Rab29 T71A/S72A–LRRK2 complex; 2D classification performed with cross-correlation (fig. S9E); both purified

B1: Rab29EM (Rab29 Q67L, T71A, S72A) (natural protein)
chain: MGSRDHLFKVLVVGDAAVGKTSLVQRYSQDSFSKHYKSTVGVDFALKVLQWSDYEIVRLQLWDIAGLERFAAMTRLYYRDASACVIMFDVTNATTFSNSQRWKQDLDSKLTLPNGEPVPCLLLANKCDLSPWAVSRDQIDRFSKENGFTGWTETSVKENKNINEAMRVLIEKMMRNS
notes: Rab29, a Rab GTPase encoded in the PARK16 locus, with three point mutations; constructs are in the supplementary Materials and Methods; also called Rab29^peri
binding [1]: binds | binding [2]: binds

B2: Rab29 T71A/S72A (protein, UniProt O14966 1-177)
chain: MGSRDHLFKVLVVGDAAVGKTSLVQRYSQDSFSKHYKSTVGVDFALKVLQWSDYEIVRLQLWDIAGQERFAAMTRLYYRDASACVIMFDVTNATTFSNSQRWKQDLDSKLTLPNGEPVPCLLLANKCDLSPWAVSRDQIDRFSKENGFTGWTETSVKENKNINEAMRVLIEKMMRNS
binding [3]: binds
